{
  "source": "PubChem BioAssay AID720533",
  "about": "(National Center for Advancing Translational Sciences (NCATS), 2013)",
  "note": "Values joined by “and” are separate entries in the source; they are usually repeats but may differ in a detail not shown here. Identical values can stand only once. Screen size: about 18,000 compounds; about 750 (4.2%) were called active. The inconclusive results got no clear call from the source; some entries with a clear call stand among them for comparison. The call rests on the fitted dose curve; tested in HEK293 cells. A potency beside an inconclusive call is a rough fit, not a confirmed value. Potency means the concentration at half of the fitted maximal effect.",
  "data": [
    {"test": "qHTS for Inhibitors of binding or entry into cells for Lassa Virus", "conditions": "Lassa virus pseudotyped entry inhibition, cell-based qHTS; series mostly up to 49.2 µM", "values": [
      {"compound": "O=C1[C@@H]2CSCCS(=O)(=O)N2C(=O)N1c1cccc2ccccc12", "Potency": "inactive"},
      {"compound": "Oc1cc2c(cc1O)C1c3ccc(O)c(O)c3OCC1(O)C2", "note": "(stereo unspecified)", "Potency": "inconclusive: 17.8 µM [inhibitor, single point]"},
      {"compound": "CCC[C@H]1CN(Cc2ccccc2)C(=O)[C@H]1CC(=O)NC", "Potency": "inactive"},
      {"compound": "CC1(C)C(=O)C=C[C@@]2(C)C1C=C[C@@]1(C)C2CC[C@@]2(C)C(c3ccoc3)OC(=O)C3OC312", "note": "(stereo partly specified)", "Potency": "inconclusive: 15.8 µM [inhibitor, single point]"},
      {"compound": "O[C@@H]1C[C@H](c2ccc(Cl)cc2)N(Cc2cccs2)C[C@@H]1n1cc(-c2ccc(F)cc2)nn1", "Potency": "inconclusive: 14.1 µM [inhibitor, partial curve, poor fit]"},
      {"compound": "N#C/C(=C\\c1ccc(O)c(O)c1)C(=O)NCCCCc1ccccc1", "Potency": "inconclusive: 35.5 µM [inhibitor, single point]"},
      {"compound": "COc1ccc(N2C(=O)[C@H]3CCC=C[C@H]3[C@@H]2c2ccccc2Br)cc1", "Potency": "inconclusive: 25.1 µM [inhibitor, single point]"},
      {"compound": "COC(=O)C[C@@](O)(CCC(C)(C)O)C(=O)O[C@@H]1C(OC)=C[C@]23CCCN2CCc2cc4c(cc2[C@@H]13)OCO4", "Potency": "active: 0.112 µM"},
      {"compound": "CC1(C)[C@H](C(=O)O[C@H](C#N)c2cccc(Oc3ccccc3)c2)[C@@H]1C=C(Br)Br", "Potency": "inconclusive: 11.2 µM [inhibitor, partial curve, poor fit]"},
      {"compound": "CC12C(=O)OC(=O)C1(C)C1CCC2O1", "note": "(stereo unspecified)", "Potency": "active: 2.82 µM"},
      {"compound": "CC(C)c1cccc(O)c(=O)c1", "Potency": "inconclusive: 35.5 µM [inhibitor, single point] and inconclusive: 22.4 µM [inhibitor, partial curve, poor fit]"},
      {"compound": "C[n+]1c2cc(N)ccc2cc2ccc(N)cc21", "note": "(tested in a mixture with another compound)", "Potency": "inconclusive: 28.2 µM [inhibitor, partial curve]"},
      {"compound": "CCc1ccc(S(=O)(=O)NCc2nc(N3CCCC3)c3cccc(C)c3n2)cc1", "Potency": "inconclusive: 25.1 µM [inhibitor, partial curve, poor fit]"},
      {"compound": "C=CC(C)(C)c1c2c(c(O)c3c(=O)c4ccc(O)c(O)c4oc13)C=CC(C)(C)O2", "Potency": "inconclusive: 28.2 µM [inhibitor, single point]"},
      {"compound": "CCCCNc1cccc2c1S(=O)(=O)N[C@@H](Cc1ccccc1)CO2", "Potency": "inactive"},
      {"compound": "COC(=O)c1ccccc1-c1cc(C)cc2c1OC(CNC(=O)c1occc1C)C2", "note": "(stereo unspecified)", "Potency": "inconclusive: 35.5 µM [inhibitor, single point]"}
    ]}
  ]
}
